# Test results reported in the supplement of paper PMC11732987, “Enantioselective OTUD7B fragment discovery through chemoproteomics screening and high-throughput optimisation” (Communications Chemistry, 2025).
# Chains of the proteins cited; added tags and fusions are not shown. Lines headed by an entry give the natural chain unless they say otherwise; changes in a name come on top.
# UniProt P35998: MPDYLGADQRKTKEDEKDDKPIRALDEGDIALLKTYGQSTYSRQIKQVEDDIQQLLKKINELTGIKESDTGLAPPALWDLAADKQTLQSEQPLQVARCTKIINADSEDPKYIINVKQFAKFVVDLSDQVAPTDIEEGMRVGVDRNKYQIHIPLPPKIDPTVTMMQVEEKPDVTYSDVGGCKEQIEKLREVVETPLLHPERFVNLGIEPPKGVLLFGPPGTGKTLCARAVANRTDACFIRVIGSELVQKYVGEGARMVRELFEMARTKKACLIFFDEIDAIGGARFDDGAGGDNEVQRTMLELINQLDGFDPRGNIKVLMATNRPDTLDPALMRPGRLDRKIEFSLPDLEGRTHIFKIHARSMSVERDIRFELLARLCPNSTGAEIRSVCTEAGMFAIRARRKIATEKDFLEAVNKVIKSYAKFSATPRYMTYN
# Some of the results follow. The data scatter; read single values as rough.
# Target: T1, PSMC2 C180 (UniProt P35998)
# T1 sequence (whole entry): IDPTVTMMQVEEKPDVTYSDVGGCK
# Assay: log2 mean competition ratio of IA-DTB cysteine labelling (DMSO/compound) (log2 ratio); higher = stronger cysteine engagement by compound
# Settings: 50 µM; treatment time: 4 h; cell line lysate: HEK293T
# Experimental: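 IA-DTB competitive cysteine chemoproteomics in HEK293T RIPA lysate. Lysates were treated with compound 29 or 30 at 50 or 200 µM for 4 h, then IA-DTB (500 µM, 1 h), trypsin-digested, NeutrAvidin-enriched and analysed by diaPASEF. Competition ratio = intensity DMSO / intensity compound (n=4 treated, n=64 DMSO); binding: mean log2 CR ≥ 1 and p ≤ 0.05 plus QC filters. Target is the cysteine site.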
row,SMILES,log2 mean competition ratio
1,O=C(CCl)N[C@H]1CCCc2ccccc21,0.498
2,O=C(CCl)N[C@@H]1CCCc2ccccc21,-0.00104

# Same assay, conditions: 200 µM; treatment time: 4 h; cell line lysate: HEK293T
row,SMILES,log2 mean competition ratio
1,O=C(CCl)N[C@H]1CCCc2ccccc21,-0.0491
2,O=C(CCl)N[C@@H]1CCCc2ccccc21,-0.358
